Source: patent publication US7696245B2, “Fluorescent probe for zinc” (Sekisui Medical Co., Ltd., priority 2003, dated 2010)

Test: Selectivity for zinc ions: fluorescence intensity in the presence of various metal ions
Type: physicochemical
Conditions: metal ions at high concentration (5 mM), 100 mM HEPES buffer (pH 7.5)
Method: Compounds 8, 13, 17, and 22 were used to evaluate selectivity for zinc ions. 1 μM of the compound was added in 100 mM HEPES buffer (pH 7.5) containing various metal ions (1 μM or 5 μM). The fluorescence intensity was measured at the excitation wavelength of 492 nm and the fluorescence wavelength of 514 nm for Compounds 8, 17, and 22, and the excitation wavelength of 492 nm and the fluorescence wavelength of 521 nm for Compound 13.

Increase in fluorescence intensity in the presence of sodium, potassium, calcium and magnesium ions, absolutely no increase:
O=C(O)c1ccc(NCCNCc2ccccn2)cc1-c1c2ccc(=O)cc-2oc2cc(O)ccc12 [Compound 8]
O=C(O)c1ccc(NCCN(CCc2ccccn2)CCc2ccccn2)cc1-c1c2ccc(=O)cc-2oc2cc(O)ccc12 [Compound 17]
Cc1cccc(CN(CCNc2ccc(C(=O)O)c(-c3c4ccc(=O)cc-4oc4cc(O)ccc34)c2)Cc2ccccn2)n1 [Compound 22]
O=C(O)c1ccc(NCCN(CCc2ccccn2)Cc2ccccn2)cc1-c1c2ccc(=O)cc-2oc2cc(O)ccc12 [Compound 13]
